This note sets out measurements from patent US20260191925A2, “TISSUE OCCLUDING AGENT COMPRISING AN IEIKIEIKIEIKI PEPTIDE” (3-D Matrix, Ltd., priority 2008, published 2026).

For the data set, the system named is rabbit hepatic incision. Nature of the data set: Rabbit hepatic transection model (Example 9). It counts as in vivo. As to conditions: 1% solution applied on hepatic incision. The protocol: The rabbits were subcutaneously administered (3 mg/kg) Celactar 2% injection (2.0 g content as xylazine in 100 mL, product of Bayer Ltd.), and then ketamine (50 mg content as ketamine in 1 mL, product of Fuji Chemical Industries, Ltd.) was intravenously administered (10 mg/kg) for anesthesia.
The rabbits were laparotomized by median section and the hepatic left lobes were exposed and sharply transected with a scalpel to about 1 cm to induce hemorrhage.
After confirming exudative hemorrhage from the incision, the blood was removed as much as possible with gauze and the hepatic incision was treated with aqueous peptide solution.
The gelled aqueous peptide solution was removed 1 minute after treatment using physiological saline, and the presence of any hemorrhage from the hepatic incision was visually confirmed.
With “1% IEIK9 aqueous peptide solution: 1% aqueous peptide solution, peptide sequence IEIK9 (SEQ ID NO: 4) (IEIKIEIKI; 1% aqueous solution; designed peptide; SITE 1 MOD_RES - …ON)”, the “gelling on hemorrhage wound surface” value is given as “Absolutely no gelling”.

With “Ac-(IEIK)3I-CONH2 [1% IEIK13 aqueous peptide solution]”, the “gelling on hemorrhage wound surface” value is listed as “gelled after applying”.

Take “Ac-(KLDL)3-CONH2 (KLDLKLDLKLDL; N-acetyl, C-amide; 1% aqueous solution; designed peptide; SITE 1 MOD_RES - …ON; SITE 12 Amidated residue) [1% KLD aqueous peptide solution]”: the “gelling on hemorrhage wound surface” value is “gelled after applying”.
